Results as given in paper PMC7759526.
These are yes or no findings as the source states them, for the method shown. Binding seen in cells or lysates may run through a third protein. Some results given as binding are weak or reduced against the parent protein; the word gives no strength.

By UniProt entry, the sequences of proteins in these tests, tags left out.
UniProt Q13950: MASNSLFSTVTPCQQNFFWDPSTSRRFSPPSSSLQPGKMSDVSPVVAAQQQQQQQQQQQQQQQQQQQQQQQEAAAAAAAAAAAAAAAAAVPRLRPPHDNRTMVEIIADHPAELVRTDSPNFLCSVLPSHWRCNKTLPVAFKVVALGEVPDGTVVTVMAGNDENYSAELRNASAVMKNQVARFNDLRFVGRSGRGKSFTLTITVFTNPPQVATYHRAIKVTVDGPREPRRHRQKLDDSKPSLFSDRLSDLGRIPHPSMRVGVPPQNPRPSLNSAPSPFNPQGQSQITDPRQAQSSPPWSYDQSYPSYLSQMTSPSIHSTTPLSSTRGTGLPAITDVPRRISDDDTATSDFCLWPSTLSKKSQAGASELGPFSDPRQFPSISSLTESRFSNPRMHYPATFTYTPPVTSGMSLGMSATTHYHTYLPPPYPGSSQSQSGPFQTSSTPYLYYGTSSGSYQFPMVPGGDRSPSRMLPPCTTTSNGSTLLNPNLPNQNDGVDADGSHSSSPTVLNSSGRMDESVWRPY
UniProt Q9UM07: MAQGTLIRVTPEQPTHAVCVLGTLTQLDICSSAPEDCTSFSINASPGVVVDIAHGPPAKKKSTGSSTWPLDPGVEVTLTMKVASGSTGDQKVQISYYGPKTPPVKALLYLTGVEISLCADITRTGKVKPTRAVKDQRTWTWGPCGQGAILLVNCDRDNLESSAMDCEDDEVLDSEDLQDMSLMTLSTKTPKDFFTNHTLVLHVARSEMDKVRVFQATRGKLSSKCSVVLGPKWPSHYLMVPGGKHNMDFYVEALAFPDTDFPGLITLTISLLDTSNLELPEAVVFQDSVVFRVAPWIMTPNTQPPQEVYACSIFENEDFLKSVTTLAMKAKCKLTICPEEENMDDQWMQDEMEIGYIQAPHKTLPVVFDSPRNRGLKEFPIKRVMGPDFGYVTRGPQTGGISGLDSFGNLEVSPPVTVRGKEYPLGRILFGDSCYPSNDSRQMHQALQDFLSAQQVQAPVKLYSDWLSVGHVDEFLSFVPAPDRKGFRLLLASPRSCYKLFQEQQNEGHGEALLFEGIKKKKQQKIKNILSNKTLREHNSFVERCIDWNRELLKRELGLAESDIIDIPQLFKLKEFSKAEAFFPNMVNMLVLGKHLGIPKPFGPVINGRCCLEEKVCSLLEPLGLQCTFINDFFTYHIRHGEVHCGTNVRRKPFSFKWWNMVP

Tests used:
[1] = molecular target: RUNX2 (endogenous, hFOB 1.19) (human (endogenous in hFOB 1.19)) (UniProt Q13950); experiment: co-IP; endogenous proteins; whole-cell extracts of hFOB 1.19 cells induced for 3 days; precipitated with anti-RUNX2 antibody (normal mouse IgG as control) and protein-G agarose at 4°C, blotted with anti-PADI4 or anti-RUNX2
FLAG-RUNX2 (human) = FLAG-RUNX2 (human) (UniProt Q13950); experiment: co-IP; HEK293T cells co-transfected with HA-PADI4 and FLAG-RUNX2; IP lysis buffer; precipitated with anti-FLAG antibody (normal mouse IgG as control) and protein-G agarose at 4°C, blotted with anti-HA or anti-FLAG

Substance	binding [1]	binding (FLAG-RUNX2 (human))
PADI4 (endogenous, hFOB 1.19) (from UniProt Q9UM07 1-663) (enzyme)	binds	–
HA-PADI4 (peptidyl arginine deiminase 4) (from UniProt Q9UM07 1-663) (enzyme)	–	binds
